From EP0133934A2, “Pharmacologically active 1,3,4-thiadiazol-(3,2-a)-thieno-(2,3-d)-pyrimidin-5-(H)one derivatives” (NIKEPHARMA S.r.l., priority 1983, dated 1985)
At least one read-out could not be matched to a standard name with certainty.

Tested on: Writhing test induced by phenyl-benzoquinone
Experiment: Phenylbenzoquinone writhing test in the rat
Assay type: in vivo
Details: os, controls 55.1 ± 1.45
Procedure: The activity tests were carried out on male Spra gue-Dawley rats weighing 200+20 g and on male Swiss mice weighing 26+3 g.
The test compounds were administered orally by means of gastroesophageal tube, in the form of a suspen sion in a 10 ml/kg mucilage of 5% gum arabic; and intraperitoneally in the form of an aqueous suspen sion added with a few drops of Tween 80, in the con stant volume of 10 ml/kg.

[1] = 5 mg/kg, 1 hour before phenylbenzoquinone

| Compound | N° OF WRITHINGS in 10 MINUTES [1] | N° OF WRITHINGS in 10 MINUTES (50 mg/kg) | N° OF WRITHINGS in 10 MINUTES (0.5 mg/kg) |
| --- | --- | --- | --- |
| CC(=O)Oc1ccccc1C(=O)O [ASA, Acetylsali cylic acid] | 52.8 ± 1.46 | 33.0 ± 1.72 | – |
| COc1ccc2c(c1)c(CC(=O)O)c(C)n2C(=O)c1ccc(Cl)cc1 [INDO, Indomethacin] | 6.9 ± 0.75 | – | 28.0 ± 1.45 |
